Consider one molecule from US7432308B2, “Therapeutic compositions for the treatment of a respiratory tract disease” (Universiteit Gent, priority 2001, dated 2008).

This series concerns sputum DNA. Kind of series: DNAse treatment of sputum: change of sputum viscoelasticity (G′, G″) by rheometry. Details: species or system human.

B1: rhDNAse I: Recombinant human DNAse I, commercially available under the trade name Pulmozyme, also designated dornase alpha (protein, UniProt P24855 23-282, looked up)
Deoxyribonuclease-1: LKIAAFNIQTFGETKMSNATLVSYIVQILSRYDIALVQEVRDSHLTAVGKLLDNLNQDAPDTYHYVVSEPLGRNSYKERYLFVYRPDQVSAVDSYYYDDGCEPCGNDTFNREPAIVRFFSRFTEVREFAIVPLHAAPGDAVAEIDALYDVYLDVQEKWGLEDVMLMGDFNAGCSYVRPSQWSSIRLWTSPTFQWLIPDSADTTATPTHCAYDRIVVAGMLLRGAVVPDSALPFNFQAAYGLSDQLAQAISDHYPVEVMLK
modifications: dornase alfa
notes: Recombinant human DNAse I, commercially available under the trade name Pulmozyme, also designated dornase alpha
On to B1, for which the “sputa from non-responders not degraded in vitro” value (seven of the nine sputa) stood at 78%. For the same molecule, under “ten of the thirteen sputa”, the “sputa from clinical responders degraded in vitro (decrease of both G′ and G″ at least 10%)” value stood at 77%.
